{"source": "PubChem BioAssay AID652259 (Drosophila RNAi Screening Center, 2013)", "assay": "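Identify new Wingless signalling regulators in fly cells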 (primary screen)", "cell system": "Drosophila clone 8 imaginal disc epithelial cells", "reagents": "long dsRNA against Drosophila genes", "treatment": "pathway stimulated by co-transfected Wingless expression plasmid", "measurement": "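Dual luciferase reads per well after Wingless plasmid stimulation: reporter firefly light and Renilla control light; activity is firefly divided by Renilla, a ratio not deposited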", "reading the numbers": "firefly reporter light: higher = more Wg reporter light, before normalisation; Renilla control light: higher = more transfected or surviving cells", "active means": "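Strong candidates differ from their plate mean by at least two out of four per-plate statistical tests; weak candidates meet just one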", "calls": "active = candidate regulator (raises or lowers reporter); inactive = not a candidate", "note": "In all, the deposit lists about 22,000 reagents; this is a random part of those that have a named target and a result. Over the whole deposit, 233 (1.1%) were called active. 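Light values are raw, unnormalised plate reads; the ratio scores behind the reporter calls were not deposited.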 A plus sign joins genes that one reagent is predicted to hit. Not given: the amount of reagent, the time to read-out, the dose of the treatment."}
{"Target gene": "Cse1", "DRSC id": "DRSC03287", "firefly reporter light, replicate 1": 4548, "firefly reporter light, replicate 2": 6.76e5, "Renilla control light, replicate 1": 1269, "Renilla control light, replicate 2": 3.49e5, "outcome": "inactive"}
{"Target gene": "CG13337", "DRSC id": "DRSC06371", "firefly reporter light, replicate 1": 6165, "Renilla control light, replicate 1": 2256, "outcome": "inactive"}
{"Target gene": "Dso1", "DRSC id": "DRSC21815", "firefly reporter light, replicate 1": 3.42e5, "firefly reporter light, replicate 2": 3.06e5, "Renilla control light, replicate 1": 1.43e5, "Renilla control light, replicate 2": 1.41e5, "outcome": "inactive"}
{"Target gene": "SdhCL", "DRSC id": "DRSC16078", "firefly reporter light, replicate 1": 22761, "Renilla control light, replicate 1": 5929, "outcome": "inactive"}
{"Target gene": "Cht6", "DRSC id": "DRSC18001", "firefly reporter light, replicate 1": 19156, "Renilla control light, replicate 1": 7968, "outcome": "inactive"}
{"Target gene": "Cht6", "DRSC id": "DRSC18002", "firefly reporter light, replicate 1": 21337, "Renilla control light, replicate 1": 3701, "outcome": "inactive"}
{"Target gene": "Cht6", "DRSC id": "DRSC18253", "firefly reporter light, replicate 1": 25320, "Renilla control light, replicate 1": 11997, "outcome": "inactive"}
{"Target gene": "Diap2", "DRSC id": "DRSC07444", "firefly reporter light, replicate 1": 7081, "Renilla control light, replicate 1": 2594, "outcome": "inactive"}
{"Target gene": "Sry-delta", "DRSC id": "DRSC16869", "firefly reporter light, replicate 1": 2316, "firefly reporter light, replicate 2": 6680, "Renilla control light, replicate 1": 1065, "Renilla control light, replicate 2": 1799, "outcome": "inactive"}
{"Target gene": "RpL38", "DRSC id": "DRSC07818", "firefly reporter light, replicate 1": 7856, "Renilla control light, replicate 1": 2130, "outcome": "inactive"}
{"Target gene": "CG31975 + ovm", "DRSC id": "DRSC00323", "firefly reporter light, replicate 1": 2829, "firefly reporter light, replicate 2": 6252, "Renilla control light, replicate 1": 1157, "Renilla control light, replicate 2": 2690, "outcome": "inactive"}
{"Target gene": "Rbsn-5", "DRSC id": "DRSC03094", "firefly reporter light, replicate 1": 10184, "Renilla control light, replicate 1": 5336, "outcome": "inactive"}
